Source: patent US11485700B2, “Synthesis of (+)-cannabinoids and their therapeutic effects” (SYMRISE AG, priority 2018, dated 2022)
“Also recorded” adds a separate entry of the source. For at least one compound, name, drawing or mass did not settle the structure.

Tests used:
Format in all cases: cell-based
[1] = tested on: PolyIC-treated human keratinocytes (HaCat); test: Poly I:C-induced proteases in human HaCat keratinocytes; details: Poly I:C 10 μg/ml, 24 h
Method: (§1) Cell cultures: Human primary monocytes were extracted from the whole blood of medically healthy volunteers, who provided written informed consent at the local blood bank (University Hospital of Freiburg, Germany), following a standardized protocol (gradient preparation, Lymphocytes separation medium, PAN Biotech, P04-60125, Aidenbach, Germany) using completely endotoxin-free cultivation. Using 50 ml tubes, 25 ml Pancoll was loaded with 25 ml of blood (buffy coats). The gradient was established by centrifugation at 1800 rpm, 20° C. for 40 min with slow acceleration and deceleration. Peripheral blood mononuclear cells in the interphase were carefully removed and re-suspended in 50 ml pre-warmed phosphate-buffered saline (PBS) (Pan Biotech, P04-36500), followed by centrifugation for 10 min at 1600 rpm and 20° C. The supernatant was discarded and the pellet washed in 50 ml PBS and centrifuged as described above. The pellet was then re-suspended in 50 ml RPMI-1640 low-endotoxin medium supplemented with 10% human serum (Hexcell, Berlin, Germany, SP2080). After counting the number of cells in a particle counter (Euro Diagnostics, Krefeld, Germany), cells were seeded in 24-well plates for enzyme linked immunosorbent assay (ELISA) (2.2 mio. cells/well) or 96-well plates at a density of 2×10^4 cells/well for cell viability testing, and incubated at 37° C. with 5% CO2. The medium and the non-adherent cells (lymphocytes) were removed and fresh RPMI-1640 medium containing 1% human serum added. Enriched monocytes were then ready to be used for the experiments. Primary human fibroblasts and HaCat keratinocytes were obtained from the Uniklinik Freiburg. All cells were maintained in supplemented DMEM (Invitrogen, Life-Technologies, Darmstadt, Germany) medium containing 10% FBS (Bio&Sell, Feucht, Germany) and 1% antibiotics penicillin/streptomycin (from Invitrogen, DMEM complete medium) at 37° C. in a humidified atmosphere of 5% CO2.
Determination of MMPs and TIMPs in keratinocytes: Keratinocytes (HaCat) were cultivated as described above. Cells were seeded in 24-well plates incubated with Poly I:C (InvivoGen, San Diego, Calif.; USA, 10 μg/ml) in absence and presence of the cannabinoids (5 doses, n=3) for 24 h. Unstimulated cells served as a negative control. 24 h after cell stimulation, supernatants were removed, centrifuged and investigated for MMP1, MMP9 and TIMP1 concentrations by ELISAs according to the manufacturer's protocol (from Biotechne, Wiesbaden, Germany). The respective extinction was determined using a 96-well plate reader (Berthold, Offenburg, Germany).

[2] = tested on: LPS-treated human monocytes; test: LPS-induced inflammatory parameters in human monocytes; details: LPS 10 ng/ml, 24 h
Method: as §1
Measurement of cytokines and PGE2 in primary human monocytes: Cells were incubated with LPS (Sigma-Aldrich, Taufkirchen, Germany, 10 ng/ml) for 24 h. The cannabinoids (5 doses) were added 30 min before LPS treatment. After 24 h, supernatants were removed, centrifuged and investigated for IL-1beta, IL-8, IL-6, TNFalpha, MMP9, isoprostane, and PGE2 concentrations in EIAs (PGE2 and isoprostane, from Cayman/Biomol, Hamburg, Germany) or ELISAs (IL-1beta, Hiss, Freiburg, Germany; TNFalpha, IL-6 and IL-8, ImmunoTools, Frysoithe, Germany, MMP9, Biotechne, Wiesbaden, Germany) using manufacturer's protocol. The respective extinction was determined using a 96-well plate reader (Berthold, Offenburg, Germany). Each dose was analyzed 4 times in two buffy coats from 2 different donors (2 buffy coats used from 2 different healthy blood donors with final n=4 values).

[3] = tested on: IL-1-treated human dermal fibroblasts; test: IL-1-induced inflammatory parameters in human dermal fibroblasts; details: IL-1beta 10 U/ml, 24 h
Method: as §1
Determination of inflammatory molecules in fibroblasts: Primary human fibroblasts were cultivated as described above and seeded (500000 cells/well) in 24-well plates. Cells were incubated with IL-1beta (Roche, Mannheim, Germany, 10 U/ml) in absence and presence of the cannabinoids (5 doses, n=3) for 24 h. Unstimulated cells served as a negative control. 24 h after cell stimulation, supernatants were removed, centrifuged and investigated for IL-6, PGE2, and IL-8 concentrations by ELISAs according to the manufacturer's protocol (PGE2 from Cayman/Biomol, Hamburg, Germany; IL-6, and IL-8 from Immuno-tools, Frisoythe, Germany). The respective extinction is determined using a 96-well plate reader (Berthold, Offenburg, Germany).

CB1 receptor = CB1 receptor (Homo sapiens (Human), UniProt P21554); test: CB1 antagonistic activity against WIN 55,212-2, CRE-Luc assay in HEK 293T-CB1 cells; details: HEK 293T-CB1 CRE-Luc, WIN 55,212-2 1 μM; for CB1 (antagonism): symbols without printed key
Method: HEK 293T-CB1 and HEK 293T-CB2 cells (stably transfected with CB1 and CB2 cDNAs) (10^5/ml) were incubated in 24-well plates and transiently transfected with 0.5 μg/ml of the plasmid CRE-Luc that contains six consensus cAMP responsive elements (CRE) linked to firefly luciferase. Transient transfections were performed with Rotifect (Carl Roth GmbH, Karlsruhe, Germany) according to the manufacturer's instructions and harvested 24 h after transfection.
For CB1 antagonistic activity the CB1 cells were pre-incubated with the test compounds during 15 min and then stimulated with WIN 55,212-2 for 6 h.
After six hours of stimulation the cells were lysed (in 25 mM Tris-phosphate pH 7.8, 8 mM MgCl2, 1 mM DTT, 1% Triton X-100, and 7% glycerol) and luciferase activity was measured using an Autolumat LB 9501 (Berthold Technologies, Bad Wildbad, Germany) following the instructions of the luciferase assay kit (Promega, Madison, Wis.). The background obtained with the lysis buffer was subtracted in each experimental value, and the specific transactivation expressed as fold induction over basal levels (CRE-Luc).
HEK 293T-CB1 cells were transfected with the CRE-Luc plasmid and 24 h later stimulated with either Win 55,212-2 (1 μM positive control) in the presence or the absence of the test compounds for six hours. The negative control (untreated cells, 0% activation) is not listed.

CB2 receptor = CB2 receptor (Homo sapiens (Human), UniProt P34972); test: CB2 agonistic activity, forskolin-induced CRE-Luc in HEK 293T-CB2 cells; details: HEK 293T-CB2 CRE-Luc, forskolin 10 μM

Row | SMILES | effect on Poly I:C-stimulated MMP9 [1] | effect on LPS-induced TNFalpha [2] | effect on LPS-mediated IL-1beta [2] | CB1 (antagonism) (CB1 receptor) | CB1 antagonistic activity (CB1 receptor) | effect on Poly I:C-induced MMP1 [1] | other results
1 | C=C(C)[C@H]1CCC(C)=C[C@@H]1c1c(O)cc(CCC)cc1O [(+)-CBDV, (+)-Cannabidivarin] | slight inhibitory effects | weaker effect | slight effect | + |  |  | effect on Poly I:C-stimulated TIMP1 [1]: slight inhibitory effects; overall effects on LPS-induced inflammatory parameters [2]: comparable effects to (+)-CBD; overall profile on IL-1-induced parameters [3]: comparable profile to (+)-CBD
2 | C=C(C)[C@H]1CCC(C)=C[C@@H]1c1c(O)cc(CCCCC)c(C(=O)OCC(O)CCC)c1O (single isomer, unassigned; (+)) [(+)-CBD-HPE, (+)-Cannabidiol hydroxypentylester] |  | not affected | potently increased | + | very potent CB1 antagonist |  | CB2 agonistic activity (CB2 receptor): some CB2 agonistic activity at higher concentrations; also recorded: marginal CB2 agonistic activity
3 | C=C(C)[C@H]1CCC(C)=C[C@@H]1c1c(O)cc(CCCCC)c(C(=O)OCCO)c1O [(+)-CBD-GE, (+)-Cannabidiol glycolester] |  |  |  | + |  | did not affect | effect on LPS-induced IL-8 [2]: not affected
4 | C=C(C)[C@H]1CCC(C)=C[C@@H]1c1c(O)cc(CCCCC)c(C(=O)OC)c1O [(+)-CBD-ME, (+)-Cannabidiol methylester] | enhanced |  |  | + |  | enhanced | effect on IL-1-mediated PGE2 [3]: slightly decreased; effect on induced IL-6 in fibroblasts [3]: slightly increased; effect on induced IL-8 in fibroblasts [3]: slightly increased
5 | C=C(C)[C@H]1CCC(C)=C[C@@H]1c1c(O)cc(CCCCC)cc1O [(+)-CBD, (+)-Cannabidiol] |  |  | not affected | + | showed CB1 antagonistic activity |  | effect on LPS-mediated MMP9 [2]: not affected; effect on LPS-mediated isoprostane [2]: not affected
